Data taken from PubChem BioAssay AID720603 (Broad Institute, 2013).
The inconclusive results got no clear call from the source; some entries with a clear call stand among them for comparison. Active and inactive are the calls of the source.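 The calls were made as follows: active = every test run gave an active call, each with a potency at or below twice the top valid dose; inconclusive = test runs disagree, or curve fits are weak or unclear; inactive = every test run inactive, including wrong-way signal.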

Experiment: C2C12 myoblast ATP-based viability loss, dose response, cytotoxicity control for HRAS target identification, cell-based, CellTiter-Glo ATP luminescence, 8/24/48 h, dry powder (AID 720603)
Settings: C2C12 mouse myoblast viability, 8-48 h; at 35 µM (top of the series)

Compound	activity change, negative = cytotoxicity
CCC(=O)N(c1ccc(OC)c(Cl)c1)C(C(=O)NCCc1ccccc1)c1cccs1 (stereo not drawn)	inconclusive: -86%
Cc1onc(C(=O)N2CCN(C(c3ccncc3)c3ccncc3)CC2)c1[N+](=O)[O-]	inactive: -16.1%
Cc1onc(C(=O)N2CCN(C(c3ccc(Cl)cc3)c3ccc(Cl)cc3)CC2)c1[N+](=O)[O-]	inconclusive: -97.3%
